The data set deals with PrgX. Briefly: Size exclusion chromatography: PrgX oligomerization state in solution. Also on record: species or system Enterococcus faecalis. The settings on record: Superdex 200 Hiload 16/600, 20 mmol L^−1 Tris–HCl pH 8.0, 300 mmol L^−1 NaCl, absence of DNA.

B1: PrgX: master transcription regulator PrgX, a repressor of transcription of the prgQ operon; apo form is a dimer in solution (protein)
chain: MFKIGSVLKQIRQELNYHQIDLYSGIMSKSVYIKVEADSRPISVEELSKFSERLGVNFFEILNRAGMNTKSVNETGKEKLLISKIFTNPDLFDKNFQRIEPKRLTSLQYFSIYLGYISIAHHYNIEVPTFNKTITSDLKHLYDKRTTFFGIDYEIVSNLLNVLPYEEVSSIIKPMYPIVDSFGKDYDLTIQTVLKNALTISIMNRNLKEAQYYINQFEHLKTIKNISINGYYDLEINYLKQIYQFLTDKNIDSYLNAVNIINIFKIIGKEDIHRSLVEELTKISAKEKFTPPKEVTMYYENYVAIENNPIPEIKEQS
modifications: left off: His tag, end not stated, kept
notes: master transcription regulator PrgX, a repressor of transcription of the prgQ operon; apo form is a dimer in solution
With B1, the “oligomerization state in solution” value is recorded as “eluted as a dimer”. Where the note is “UV 280”, the “apparent mass (size exclusion chromatography)” value was 74 KDa.

B2: PrgX‐C: PrgX/cCF10 complex (tetramer), purified by nickel affinity and size exclusion chromatography (protein)
chain 1: B1 chain
chain 2: LVTLVFV
modifications: left off: His tag, end not stated, kept
As to B2, the “oligomerization state in solution” value is given as “consistent with tetramers”.

B3: PrgX‐I: PrgX/iCF10 complex (tetramer), purified by nickel affinity and size exclusion chromatography (protein)
chain 1: B1 chain
chain 2: AITLIFI
modifications: left off: His tag, end not stated, kept
In the case of B3, the “oligomerization state in solution” value is listed as “consistent with tetramers”.
